Our source for the binding values is paper PMC8654949.

By UniProt entry, the sequences of proteins in these tests, tags left out. Where a name states a change or a piece, a line headed by the entry shows the natural chain unless it says otherwise.
UniProt Q86X51: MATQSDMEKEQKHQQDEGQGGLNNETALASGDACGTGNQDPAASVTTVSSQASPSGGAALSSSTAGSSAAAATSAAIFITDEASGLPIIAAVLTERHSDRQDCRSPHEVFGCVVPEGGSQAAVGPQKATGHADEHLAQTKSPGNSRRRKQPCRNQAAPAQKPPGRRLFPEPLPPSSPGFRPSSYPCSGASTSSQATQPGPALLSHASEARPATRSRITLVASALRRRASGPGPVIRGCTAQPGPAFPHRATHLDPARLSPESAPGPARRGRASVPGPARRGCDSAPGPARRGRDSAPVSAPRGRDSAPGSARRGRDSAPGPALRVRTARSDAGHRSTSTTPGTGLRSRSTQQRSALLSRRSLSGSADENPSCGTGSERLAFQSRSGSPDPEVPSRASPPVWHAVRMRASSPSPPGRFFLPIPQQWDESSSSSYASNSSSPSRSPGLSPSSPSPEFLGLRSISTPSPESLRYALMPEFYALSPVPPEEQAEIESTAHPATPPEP
UniProt A6NHR9: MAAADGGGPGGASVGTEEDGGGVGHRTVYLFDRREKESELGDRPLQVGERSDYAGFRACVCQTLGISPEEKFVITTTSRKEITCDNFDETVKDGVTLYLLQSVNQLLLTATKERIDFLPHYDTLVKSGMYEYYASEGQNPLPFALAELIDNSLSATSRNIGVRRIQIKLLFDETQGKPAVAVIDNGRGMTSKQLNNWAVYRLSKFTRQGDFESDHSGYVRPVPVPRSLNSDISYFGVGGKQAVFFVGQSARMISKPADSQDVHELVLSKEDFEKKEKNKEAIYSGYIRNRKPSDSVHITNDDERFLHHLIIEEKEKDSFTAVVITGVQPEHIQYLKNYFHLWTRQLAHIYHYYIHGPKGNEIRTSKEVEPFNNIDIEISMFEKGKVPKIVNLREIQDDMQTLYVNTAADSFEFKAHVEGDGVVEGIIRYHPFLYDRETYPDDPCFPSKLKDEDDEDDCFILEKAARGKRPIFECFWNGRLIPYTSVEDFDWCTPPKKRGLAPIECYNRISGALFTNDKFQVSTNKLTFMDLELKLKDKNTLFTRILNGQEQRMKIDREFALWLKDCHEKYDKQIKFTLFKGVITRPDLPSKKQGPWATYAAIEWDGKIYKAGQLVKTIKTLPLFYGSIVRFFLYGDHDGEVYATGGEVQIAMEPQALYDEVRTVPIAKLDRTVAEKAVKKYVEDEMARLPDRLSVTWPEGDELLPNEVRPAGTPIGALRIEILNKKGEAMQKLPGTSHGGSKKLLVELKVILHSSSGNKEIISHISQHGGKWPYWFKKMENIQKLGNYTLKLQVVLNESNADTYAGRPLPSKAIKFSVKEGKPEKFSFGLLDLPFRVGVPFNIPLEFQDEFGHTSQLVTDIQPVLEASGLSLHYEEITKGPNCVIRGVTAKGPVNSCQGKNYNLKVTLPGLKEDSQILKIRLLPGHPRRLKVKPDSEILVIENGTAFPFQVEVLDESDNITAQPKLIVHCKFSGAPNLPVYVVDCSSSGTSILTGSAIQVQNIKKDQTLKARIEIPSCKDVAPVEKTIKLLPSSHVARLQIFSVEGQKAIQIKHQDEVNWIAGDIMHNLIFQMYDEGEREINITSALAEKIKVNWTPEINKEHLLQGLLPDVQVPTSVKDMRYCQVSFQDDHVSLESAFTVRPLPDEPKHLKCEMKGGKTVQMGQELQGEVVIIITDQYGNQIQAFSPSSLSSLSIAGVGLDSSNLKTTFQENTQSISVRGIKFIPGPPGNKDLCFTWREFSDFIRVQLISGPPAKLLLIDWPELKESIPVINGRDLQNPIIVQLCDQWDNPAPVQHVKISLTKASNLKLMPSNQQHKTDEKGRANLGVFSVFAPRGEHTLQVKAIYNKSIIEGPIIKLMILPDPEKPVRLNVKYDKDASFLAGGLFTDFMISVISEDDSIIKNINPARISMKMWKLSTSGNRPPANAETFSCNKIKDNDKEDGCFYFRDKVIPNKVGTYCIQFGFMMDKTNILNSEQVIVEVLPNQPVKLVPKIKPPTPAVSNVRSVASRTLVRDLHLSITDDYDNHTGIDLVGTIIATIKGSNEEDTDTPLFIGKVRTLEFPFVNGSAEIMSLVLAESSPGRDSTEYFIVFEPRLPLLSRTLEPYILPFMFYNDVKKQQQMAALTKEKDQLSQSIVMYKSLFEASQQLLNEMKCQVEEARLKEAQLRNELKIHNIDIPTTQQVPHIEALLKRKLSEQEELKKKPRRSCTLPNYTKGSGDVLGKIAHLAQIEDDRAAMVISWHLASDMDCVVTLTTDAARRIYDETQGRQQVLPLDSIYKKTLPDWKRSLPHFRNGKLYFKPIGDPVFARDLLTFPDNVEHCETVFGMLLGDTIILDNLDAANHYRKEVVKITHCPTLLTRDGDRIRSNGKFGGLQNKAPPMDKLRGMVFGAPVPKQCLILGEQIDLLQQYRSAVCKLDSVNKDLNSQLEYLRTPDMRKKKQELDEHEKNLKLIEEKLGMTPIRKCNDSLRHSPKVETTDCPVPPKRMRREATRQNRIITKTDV

In this assay the target is endogenous EZHIP of U2OS cells (form of higher molecular weight) (human (endogenous in U2OS)) (UniProt Q86X51). Description: co-IP; endogenous proteins; antibody (1 µg) conjugated to Dynabeads protein A and protein G (3:1); lysates of HEK293T, U2OS, HeLa cells or control myoblasts; western blot.

These are yes or no findings as the source states them, for the method shown. Binding seen in cells or lysates may run through a third protein. Binding calls can cover weak binding; strength is not graded here.

With “endogenous SMCHD1 (from UniProt A6NHR9 1-2005)”, the binding entry is reported as “binds”.
